Results from publication doi:10.1101/2023.10.13.562155 (bioRxiv, 2023).
Read-outs that look alike come from different tables or passages of the source. These are yes or no findings as the source states them, for the method shown. Binding seen in cells or lysates may run through a third protein. Some binding calls cover weakened binding; strength is not graded here. For part of these data: Tags and fused reporters may be left off the sequences shown.

Sequences of proteins named here, by UniProt entry; tags and fusion partners are left off. A change or cut given only in a name is not applied to a line headed by its entry. Residues count along the entry.
UniProt Q9Z0W1, 32-427: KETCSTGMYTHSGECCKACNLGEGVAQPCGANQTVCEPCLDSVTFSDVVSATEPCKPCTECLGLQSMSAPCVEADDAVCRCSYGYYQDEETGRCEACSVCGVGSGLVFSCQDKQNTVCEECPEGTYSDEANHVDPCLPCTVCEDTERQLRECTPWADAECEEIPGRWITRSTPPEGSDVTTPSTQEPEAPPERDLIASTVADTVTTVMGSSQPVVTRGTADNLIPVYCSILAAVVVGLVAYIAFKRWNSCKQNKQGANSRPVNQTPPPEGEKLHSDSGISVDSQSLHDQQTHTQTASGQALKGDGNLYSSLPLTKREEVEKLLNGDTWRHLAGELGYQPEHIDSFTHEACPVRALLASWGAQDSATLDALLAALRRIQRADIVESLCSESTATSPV
UniProt Q9Z0W1, whole entry, looked up, stated change not applied: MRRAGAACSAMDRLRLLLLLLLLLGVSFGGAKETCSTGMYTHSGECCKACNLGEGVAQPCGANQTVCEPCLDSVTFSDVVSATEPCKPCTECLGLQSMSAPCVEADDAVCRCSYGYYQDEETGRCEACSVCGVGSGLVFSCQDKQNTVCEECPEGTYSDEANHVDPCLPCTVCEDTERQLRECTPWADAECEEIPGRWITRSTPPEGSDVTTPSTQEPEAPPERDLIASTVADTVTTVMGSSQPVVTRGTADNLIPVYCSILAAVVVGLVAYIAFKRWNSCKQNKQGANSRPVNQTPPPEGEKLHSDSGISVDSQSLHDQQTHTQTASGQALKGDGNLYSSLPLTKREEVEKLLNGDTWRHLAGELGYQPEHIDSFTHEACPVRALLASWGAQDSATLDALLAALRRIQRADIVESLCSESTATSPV
UniProt P58801, whole entry: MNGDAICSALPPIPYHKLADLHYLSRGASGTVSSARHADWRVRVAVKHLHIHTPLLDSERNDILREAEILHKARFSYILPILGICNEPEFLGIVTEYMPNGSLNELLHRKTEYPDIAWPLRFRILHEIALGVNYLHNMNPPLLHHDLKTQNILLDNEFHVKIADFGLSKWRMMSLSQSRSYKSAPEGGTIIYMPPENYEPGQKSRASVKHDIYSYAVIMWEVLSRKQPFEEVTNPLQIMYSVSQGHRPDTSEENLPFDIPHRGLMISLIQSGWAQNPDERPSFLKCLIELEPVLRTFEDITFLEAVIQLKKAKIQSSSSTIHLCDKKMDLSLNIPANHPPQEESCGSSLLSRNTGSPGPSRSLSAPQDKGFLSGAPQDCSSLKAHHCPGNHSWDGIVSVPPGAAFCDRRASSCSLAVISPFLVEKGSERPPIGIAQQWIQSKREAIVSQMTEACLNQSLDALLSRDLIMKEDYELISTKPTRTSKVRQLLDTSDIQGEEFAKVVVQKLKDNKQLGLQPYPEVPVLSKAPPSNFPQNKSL

Tests used:
Assay in all cases: co-IP
[1] = target: p75 neurotrophin receptor (p75^NTR), endogenous in cerebellar granule neurons (mouse (endogenous in P7 CGNs)) (UniProt Q9Z0W1)
[2] = target: p75 neurotrophin receptor (p75^NTR), endogenous in cerebellar granule neurons (mouse (endogenous in P7 CGNs)) (UniProt Q9Z0W1); remark: listed apart in the source
[3] = target: mouse p75^NTR V246N (cleavage-resistant, γ-secretase mutant variant) (mouse) (UniProt Q9Z0W1)
[4] = target: mouse p75^NTR wild type, transfected in NIH3T3 cells (mouse) (UniProt Q9Z0W1)
[5] = target: mouse p75^NTR K303D (mouse) (UniProt Q9Z0W1)
[6] = target: mouse p75^NTR K282A/K285A double mutant (mouse) (UniProt Q9Z0W1)

Row | binding [1] | binding [2] | binding [3] | binding [4] | binding [5] | binding [6] | Molecule
1 | binds | no binding (condition: with PMA) |  |  |  |  | RIP2, endogenous in cerebellar granule neurons (from UniProt P58801 1-539)
2 |  |  | binds | binds | no binding | binds | Flag-tagged mouse RhoGDI wild type (protein, UniProt Q99PT1 1-204) MAEQEPTAEQLAQIAAENEEDEHSVNYKPPAQKSIQEIQELDKDDESLRKYKEALLGRVAVSADPNVPNVIVTRLTLVCSTAPGPLELDLTGDLESFKKQSFVLKEGVEYRIKISFRVNREIVSGMKYIQHTYRKGVKIDKTDYMVGSYGPRAEEYEFLTPMEEAPKGMLARGSYNIKSRFTDDDKTDHLSWEWNLTIKKEWKD
